Assay results: paper PMC11559061

Target: T1, YFP-Fpa (B. subtilis Fpa, formerly YlaN, fused N-terminally to YFP) (B. subtilis) (UniProt O07638)
T1 sequence: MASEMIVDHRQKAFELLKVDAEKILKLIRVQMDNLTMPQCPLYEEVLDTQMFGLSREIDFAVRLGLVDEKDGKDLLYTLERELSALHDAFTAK
Assay: affinity purification with mass spectrometry; YFP-Fpa immunopurified on GFP-Trap magnetic agarose from B. subtilis lysate (exponential and stationary phase cells), 4°C, lysis buffer with 200 mM NaCl, 0.25% Triton-X; GFP-only strain as control; co-isolated proteins identified by nLC-MS/MS

binding: binds
B1: Fur (ferric uptake regulator) of B. subtilis (protein, UniProt P54574 1-149)
chain: MENRIDRIKKQLHSSSYKLTPQREATVRVLLENEEDHLSAEDVYLLVKEKSPEIGLATVYRTLELLTELKVVDKINFGDGVSRYDLRKEGAAHFHHHLVCMECGAVDEIEEDLLEDVEEIIERDWKFKIKDHRLTFHGICHRCNGKETE

No constants are given. Whether binding was seen depends on the method and setting. In cells and extracts the contact can be indirect. A yes stands for co-enrichment or nearness to the bait. Other partners may have been found. Tags and fused reporters may be left off the sequences shown.
